Our source for the binding signal (log2 enrichment (interaction score)) values is publication PMC8384837.

Details in all cases: yeast three-hybrid, YBZ-1, SC-Leu-His + 0.5 mM 3-AT, 4 days
The target of test [1] is T1, PUM1 PUF domain R3-FRC C935F + Q939C (UniProt Q14671).
T1 sequence: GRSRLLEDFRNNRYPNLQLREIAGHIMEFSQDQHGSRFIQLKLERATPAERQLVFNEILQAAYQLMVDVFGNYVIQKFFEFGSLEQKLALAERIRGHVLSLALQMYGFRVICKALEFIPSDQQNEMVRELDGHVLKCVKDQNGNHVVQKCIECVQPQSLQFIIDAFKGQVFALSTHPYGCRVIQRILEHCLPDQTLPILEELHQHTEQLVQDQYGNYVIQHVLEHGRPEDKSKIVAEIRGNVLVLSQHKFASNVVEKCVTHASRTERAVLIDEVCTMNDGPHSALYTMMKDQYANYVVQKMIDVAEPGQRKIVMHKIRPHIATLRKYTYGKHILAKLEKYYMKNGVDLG

Test [2] has as its target T2, PUM1 PUF domain R3-GIR C935G + R936I + Q939R (UniProt Q14671).
T2 sequence: T1 sequence with F108G, R109I, C112R

For test [3], the target named is T3, PUM1 PUF domain R3-LRE C935L + Q939E (UniProt Q14671).
T3 sequence: T1 sequence with F108L, C112E

Test [4] concerns the target T4, PUM1 PUF domain R3-LRG C935L + Q939G (UniProt Q14671).
T4 sequence: T1 sequence with F108L, C112G

The target of test [5] is T5, PUM1 PUF domain R3-LRM C935L + Q939M (UniProt Q14671).
T5 sequence: T1 sequence with F108L, C112M

Test [6] addresses T6, PUM1 PUF domain R3-LSG C935L + R936S + Q939G (UniProt Q14671).
T6 sequence: T1 sequence with F108L, R109S, C112G

Test [7] addresses T7, PUM1 PUF domain R3-LWD C935L + R936W + Q939D (UniProt Q14671).
T7 sequence: T1 sequence with F108L, R109W, C112D

The target of test [8] is T8, PUM1 PUF domain R3-MCV C935M + R936C + Q939V (UniProt Q14671).
T8 sequence: T1 sequence with F108M, R109C, C112V

Test [9] deals with T9, PUM1 PUF domain R3-RDR C935R + R936D + Q939R (UniProt Q14671).
T9 sequence: T1 sequence with F108R, R109D, C112R

Test [10] addresses T10, PUM1 PUF domain R3-RIG C935R + R936I + Q939G (UniProt Q14671).
T10 sequence: T1 sequence with F108R, R109I, C112G

Test [11] concerns the target T11, PUM1 PUF domain R3-RIS C935R + R936I + Q939S (UniProt Q14671).
T11 sequence: T1 sequence with F108R, R109I, C112S

The target in test [12] is T12, PUM1 PUF domain R3-RQG C935R + R936Q + Q939G (UniProt Q14671).
T12 sequence: T1 sequence with F108R, R109Q, C112G

In test [13] the target is T13, PUM1 PUF domain R3-RTC C935R + R936T + Q939C (UniProt Q14671).
T13 sequence: T1 sequence with F108R, R109T

Test [14] has as its target T14, PUM1 PUF domain R3-RTG C935R + R936T + Q939G (UniProt Q14671).
T14 sequence: T1 sequence with F108R, R109T, C112G

For test [15], the target named is T15, PUM1 PUF domain R3-RTV C935R + R936T + Q939V (UniProt Q14671).
T15 sequence: T1 sequence with F108R, R109T, C112V

In test [16] the target is T16, PUM1 PUF domain R3-RVA C935R + R936V + Q939A (UniProt Q14671).
T16 sequence: T1 sequence with F108R, R109V, C112A

Test [17] addresses T17, PUM1 PUF domain R3-RVS C935R + R936V + Q939S (UniProt Q14671).
T17 sequence: T1 sequence with F108R, R109V, C112S

Test [18] addresses T18, PUM1 PUF domain R3-RVT C935R + R936V + Q939T (UniProt Q14671).
T18 sequence: T1 sequence with F108R, R109V, C112T

The target in test [19] is T19, PUM1 PUF domain R3-SSD C935S + R936S + Q939D (UniProt Q14671).
T19 sequence: T1 sequence with F108S, R109S, C112D

Test [20] concerns the target T20, PUM1 PUF domain R3-YRE C935Y + Q939E (UniProt Q14671).
T20 sequence: T1 sequence with F108Y, C112E

Numbering of substitutions follows the chain as printed. The list shows a part of the results. At the low end of the ranking, values are background and their order means little.

“GGCUAGAACUAGUGGAUCCCCCGGCGCCCGGCGGCUCGAGCCCGGGUAAGUGUAAAUAGUCUGCAUGCCGCCGGGCGCCAUGCCUGCAGGUCGACUCUAGAAAACAUG”: the binding signal (log2 enrichment (interaction score)) in test [1] was -5.35; in test [2], -4.93; in test [3], -6.64; in test [4] it was -4.61; in test [5], -5.71; in test [6] it was -6.41. The binding signal (log2 enrichment (interaction score)) in [7] was -6.66; in test [8], -5.77; in [9] it was -4.55; in test [10], below -9.45; in test [11], -4.29; in test [12], below -7.21. Also, the binding signal (log2 enrichment (interaction score)) in test [13] was -4.5; in [14], -5.33; in [15], -4.4; in [16], -4.76; in test [17], -4.63; in test [18], -5.34. In addition, the results for the binding signal (log2 enrichment (interaction score)) in [19] and in test [20] were -5.08 and -6.64, respectively.
